Data: the supplement of paper PMC10849652
The list shows a part of the results.

Protein sequences, listed by entry. Tags and fused reporters are not part of them. Lines headed by an entry give the natural chain unless they say otherwise; changes in a name come on top.
UniProt Q6UX07: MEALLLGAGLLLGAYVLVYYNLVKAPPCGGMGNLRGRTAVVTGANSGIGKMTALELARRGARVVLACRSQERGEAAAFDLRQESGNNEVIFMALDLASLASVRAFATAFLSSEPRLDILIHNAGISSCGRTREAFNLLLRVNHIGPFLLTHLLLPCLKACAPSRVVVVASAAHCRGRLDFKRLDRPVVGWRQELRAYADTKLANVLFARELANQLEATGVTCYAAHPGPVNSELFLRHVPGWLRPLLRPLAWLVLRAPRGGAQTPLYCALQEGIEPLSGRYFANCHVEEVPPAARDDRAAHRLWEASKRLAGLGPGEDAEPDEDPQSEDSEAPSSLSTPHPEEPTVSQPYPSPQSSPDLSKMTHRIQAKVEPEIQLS
UniProt Q9H0S4: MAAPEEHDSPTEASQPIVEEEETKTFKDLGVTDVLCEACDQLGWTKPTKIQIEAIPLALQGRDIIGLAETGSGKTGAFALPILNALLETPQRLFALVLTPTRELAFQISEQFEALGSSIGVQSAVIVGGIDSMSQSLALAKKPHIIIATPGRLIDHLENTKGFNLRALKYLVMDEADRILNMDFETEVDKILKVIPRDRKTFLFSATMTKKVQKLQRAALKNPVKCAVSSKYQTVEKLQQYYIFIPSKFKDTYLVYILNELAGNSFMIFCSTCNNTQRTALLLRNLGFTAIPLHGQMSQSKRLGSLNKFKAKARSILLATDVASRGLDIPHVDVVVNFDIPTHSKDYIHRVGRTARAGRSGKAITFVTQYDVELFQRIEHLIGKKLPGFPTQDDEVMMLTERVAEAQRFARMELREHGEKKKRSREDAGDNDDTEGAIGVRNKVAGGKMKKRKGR
UniProt Q9H2U1: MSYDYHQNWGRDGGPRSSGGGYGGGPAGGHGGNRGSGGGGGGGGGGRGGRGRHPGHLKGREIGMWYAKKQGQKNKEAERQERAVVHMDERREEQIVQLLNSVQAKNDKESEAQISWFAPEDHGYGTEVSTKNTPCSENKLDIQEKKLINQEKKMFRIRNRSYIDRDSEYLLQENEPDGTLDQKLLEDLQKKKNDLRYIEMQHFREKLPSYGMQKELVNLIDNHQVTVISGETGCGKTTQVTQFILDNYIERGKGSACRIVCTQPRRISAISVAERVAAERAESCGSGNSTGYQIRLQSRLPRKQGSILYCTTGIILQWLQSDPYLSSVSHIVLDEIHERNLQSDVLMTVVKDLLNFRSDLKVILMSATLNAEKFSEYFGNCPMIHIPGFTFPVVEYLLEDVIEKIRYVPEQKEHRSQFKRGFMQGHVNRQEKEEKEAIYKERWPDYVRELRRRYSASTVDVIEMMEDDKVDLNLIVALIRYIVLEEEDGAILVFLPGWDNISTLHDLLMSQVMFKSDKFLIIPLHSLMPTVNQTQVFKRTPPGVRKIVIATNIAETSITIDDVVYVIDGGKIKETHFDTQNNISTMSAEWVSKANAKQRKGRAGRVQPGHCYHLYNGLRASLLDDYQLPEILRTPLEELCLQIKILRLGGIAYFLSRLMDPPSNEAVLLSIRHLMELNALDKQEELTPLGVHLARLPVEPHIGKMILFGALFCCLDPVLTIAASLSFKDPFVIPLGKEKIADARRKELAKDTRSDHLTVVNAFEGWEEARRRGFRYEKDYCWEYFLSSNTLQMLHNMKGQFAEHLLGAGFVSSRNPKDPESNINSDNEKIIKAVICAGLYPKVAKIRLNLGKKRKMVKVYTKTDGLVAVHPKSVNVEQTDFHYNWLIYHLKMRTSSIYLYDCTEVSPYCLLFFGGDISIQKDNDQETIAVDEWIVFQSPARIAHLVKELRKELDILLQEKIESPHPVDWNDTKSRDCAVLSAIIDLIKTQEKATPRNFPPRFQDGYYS
UniProt Q8WYQ5: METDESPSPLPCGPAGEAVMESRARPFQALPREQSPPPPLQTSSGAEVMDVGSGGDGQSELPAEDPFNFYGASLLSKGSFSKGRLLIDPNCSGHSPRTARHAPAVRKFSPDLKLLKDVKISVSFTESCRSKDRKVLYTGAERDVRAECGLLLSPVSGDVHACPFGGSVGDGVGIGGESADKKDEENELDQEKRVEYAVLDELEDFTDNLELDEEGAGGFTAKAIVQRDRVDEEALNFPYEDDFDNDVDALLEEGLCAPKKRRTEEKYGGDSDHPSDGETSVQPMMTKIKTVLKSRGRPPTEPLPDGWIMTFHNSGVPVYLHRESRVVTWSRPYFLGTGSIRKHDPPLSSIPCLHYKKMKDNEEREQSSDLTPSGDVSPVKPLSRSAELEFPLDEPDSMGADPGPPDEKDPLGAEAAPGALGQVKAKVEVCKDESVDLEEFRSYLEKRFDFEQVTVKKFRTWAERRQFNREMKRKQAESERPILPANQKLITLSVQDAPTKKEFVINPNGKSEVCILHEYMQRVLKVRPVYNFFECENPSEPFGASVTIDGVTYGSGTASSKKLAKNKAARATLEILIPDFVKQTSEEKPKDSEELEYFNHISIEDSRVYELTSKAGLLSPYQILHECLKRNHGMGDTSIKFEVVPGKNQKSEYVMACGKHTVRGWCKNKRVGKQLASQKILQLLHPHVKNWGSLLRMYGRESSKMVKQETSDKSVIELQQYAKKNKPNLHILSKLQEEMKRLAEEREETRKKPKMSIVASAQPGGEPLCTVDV
UniProt Q9NW81: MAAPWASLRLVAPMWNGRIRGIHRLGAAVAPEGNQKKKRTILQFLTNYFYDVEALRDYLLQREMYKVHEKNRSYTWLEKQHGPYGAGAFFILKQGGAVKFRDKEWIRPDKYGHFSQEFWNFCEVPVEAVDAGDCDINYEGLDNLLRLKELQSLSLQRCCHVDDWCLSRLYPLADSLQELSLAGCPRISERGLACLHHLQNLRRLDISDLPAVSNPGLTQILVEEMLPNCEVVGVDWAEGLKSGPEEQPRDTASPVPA
UniProt Q08495: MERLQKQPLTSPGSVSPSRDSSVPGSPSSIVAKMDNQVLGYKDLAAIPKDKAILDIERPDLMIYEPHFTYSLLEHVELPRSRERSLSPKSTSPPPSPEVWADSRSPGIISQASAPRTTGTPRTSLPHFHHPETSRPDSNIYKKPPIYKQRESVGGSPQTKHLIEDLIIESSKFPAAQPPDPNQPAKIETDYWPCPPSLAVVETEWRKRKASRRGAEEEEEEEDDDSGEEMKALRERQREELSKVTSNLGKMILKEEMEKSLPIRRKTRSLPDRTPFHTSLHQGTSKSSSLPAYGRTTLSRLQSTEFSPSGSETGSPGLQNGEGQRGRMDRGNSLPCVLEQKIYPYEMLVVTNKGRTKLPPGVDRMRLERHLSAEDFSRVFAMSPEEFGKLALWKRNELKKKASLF
UniProt Q9NVP1: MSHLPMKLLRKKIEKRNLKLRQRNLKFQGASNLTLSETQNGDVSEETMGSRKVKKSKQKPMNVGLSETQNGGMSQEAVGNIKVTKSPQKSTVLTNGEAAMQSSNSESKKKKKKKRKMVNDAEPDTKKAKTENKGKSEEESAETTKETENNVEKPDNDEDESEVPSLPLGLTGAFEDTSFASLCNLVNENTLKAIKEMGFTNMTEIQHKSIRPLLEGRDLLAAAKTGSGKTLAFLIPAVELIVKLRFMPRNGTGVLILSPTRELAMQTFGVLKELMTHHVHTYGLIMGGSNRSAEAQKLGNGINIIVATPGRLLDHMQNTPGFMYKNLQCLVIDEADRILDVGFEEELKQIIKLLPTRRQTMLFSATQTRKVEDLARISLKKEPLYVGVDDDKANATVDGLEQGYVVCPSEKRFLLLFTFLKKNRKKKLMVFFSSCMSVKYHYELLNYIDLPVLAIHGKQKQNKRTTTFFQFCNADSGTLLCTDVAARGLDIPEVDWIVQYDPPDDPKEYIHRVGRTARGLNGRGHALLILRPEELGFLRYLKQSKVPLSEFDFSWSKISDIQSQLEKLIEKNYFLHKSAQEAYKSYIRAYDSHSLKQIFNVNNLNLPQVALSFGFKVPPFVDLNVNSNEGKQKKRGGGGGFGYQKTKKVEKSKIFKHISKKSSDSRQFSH
UniProt Q7Z4W1: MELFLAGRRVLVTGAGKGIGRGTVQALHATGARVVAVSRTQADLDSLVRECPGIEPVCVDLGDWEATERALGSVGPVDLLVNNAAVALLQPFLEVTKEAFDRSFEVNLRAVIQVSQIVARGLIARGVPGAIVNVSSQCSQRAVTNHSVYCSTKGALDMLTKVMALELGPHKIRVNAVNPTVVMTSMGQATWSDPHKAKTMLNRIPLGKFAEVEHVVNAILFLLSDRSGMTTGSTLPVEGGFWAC
UniProt Q9BTC0, whole entry, looked up: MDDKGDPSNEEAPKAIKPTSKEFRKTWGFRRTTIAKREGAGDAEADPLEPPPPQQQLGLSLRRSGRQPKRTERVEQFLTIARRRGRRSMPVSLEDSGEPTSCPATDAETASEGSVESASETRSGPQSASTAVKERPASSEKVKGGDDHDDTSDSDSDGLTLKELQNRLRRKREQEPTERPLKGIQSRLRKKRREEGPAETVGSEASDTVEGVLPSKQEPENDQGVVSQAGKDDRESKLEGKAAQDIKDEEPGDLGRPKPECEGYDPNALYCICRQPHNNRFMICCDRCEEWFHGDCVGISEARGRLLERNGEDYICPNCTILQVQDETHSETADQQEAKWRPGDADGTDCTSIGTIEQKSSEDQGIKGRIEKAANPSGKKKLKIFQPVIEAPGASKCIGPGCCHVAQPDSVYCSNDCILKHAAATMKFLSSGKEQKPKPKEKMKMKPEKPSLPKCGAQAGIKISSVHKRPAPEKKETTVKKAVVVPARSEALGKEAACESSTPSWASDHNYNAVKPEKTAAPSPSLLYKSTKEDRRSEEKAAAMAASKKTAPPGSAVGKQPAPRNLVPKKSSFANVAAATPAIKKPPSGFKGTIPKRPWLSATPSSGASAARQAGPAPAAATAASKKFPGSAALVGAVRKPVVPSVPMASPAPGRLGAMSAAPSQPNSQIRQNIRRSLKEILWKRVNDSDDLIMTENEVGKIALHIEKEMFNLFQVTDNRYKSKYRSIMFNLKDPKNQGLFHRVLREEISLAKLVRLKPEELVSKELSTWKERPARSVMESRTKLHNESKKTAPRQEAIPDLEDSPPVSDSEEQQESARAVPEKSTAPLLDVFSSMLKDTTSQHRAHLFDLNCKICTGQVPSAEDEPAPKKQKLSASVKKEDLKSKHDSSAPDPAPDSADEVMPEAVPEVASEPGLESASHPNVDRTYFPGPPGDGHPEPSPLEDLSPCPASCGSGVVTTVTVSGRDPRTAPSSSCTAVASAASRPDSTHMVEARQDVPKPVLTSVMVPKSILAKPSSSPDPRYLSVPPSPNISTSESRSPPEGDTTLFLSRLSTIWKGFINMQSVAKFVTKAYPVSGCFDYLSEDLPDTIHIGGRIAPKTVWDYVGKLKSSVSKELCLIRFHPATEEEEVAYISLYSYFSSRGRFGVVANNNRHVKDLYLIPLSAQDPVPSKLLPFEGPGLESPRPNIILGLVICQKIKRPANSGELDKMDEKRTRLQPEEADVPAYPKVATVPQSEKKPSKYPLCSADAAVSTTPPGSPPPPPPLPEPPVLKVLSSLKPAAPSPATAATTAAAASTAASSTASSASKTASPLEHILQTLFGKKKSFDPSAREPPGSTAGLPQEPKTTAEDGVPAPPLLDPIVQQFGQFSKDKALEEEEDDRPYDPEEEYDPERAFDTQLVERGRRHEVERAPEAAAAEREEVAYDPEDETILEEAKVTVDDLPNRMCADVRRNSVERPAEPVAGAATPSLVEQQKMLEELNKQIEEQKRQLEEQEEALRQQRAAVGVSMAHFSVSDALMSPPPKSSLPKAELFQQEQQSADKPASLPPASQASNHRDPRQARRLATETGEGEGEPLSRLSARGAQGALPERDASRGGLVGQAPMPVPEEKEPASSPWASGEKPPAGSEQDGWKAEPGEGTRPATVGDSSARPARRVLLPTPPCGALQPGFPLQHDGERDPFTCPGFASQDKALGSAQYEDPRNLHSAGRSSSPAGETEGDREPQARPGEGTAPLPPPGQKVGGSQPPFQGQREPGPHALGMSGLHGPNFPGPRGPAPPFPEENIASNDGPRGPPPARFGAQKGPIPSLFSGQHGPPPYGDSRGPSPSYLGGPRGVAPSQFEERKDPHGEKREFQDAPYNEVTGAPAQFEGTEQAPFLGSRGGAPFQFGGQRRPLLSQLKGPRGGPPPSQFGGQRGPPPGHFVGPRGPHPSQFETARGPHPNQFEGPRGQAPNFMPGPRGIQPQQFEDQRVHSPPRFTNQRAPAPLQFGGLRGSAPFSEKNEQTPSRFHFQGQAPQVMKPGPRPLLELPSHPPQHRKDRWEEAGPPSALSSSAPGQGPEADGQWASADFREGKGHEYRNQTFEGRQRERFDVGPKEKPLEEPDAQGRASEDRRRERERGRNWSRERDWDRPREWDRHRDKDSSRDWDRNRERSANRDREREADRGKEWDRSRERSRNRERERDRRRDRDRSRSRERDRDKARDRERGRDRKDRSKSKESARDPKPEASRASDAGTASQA
UniProt P30046: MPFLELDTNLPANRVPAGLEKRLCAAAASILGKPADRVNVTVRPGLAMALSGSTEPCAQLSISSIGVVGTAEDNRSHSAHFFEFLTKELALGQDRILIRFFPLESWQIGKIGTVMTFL

Assays:
Test in all cases: log2 fold change, soluble protein after heating vs DMSO (PISA); higher = thermal stabilisation; K562 cells, 10 uM, 30 min; active = over 0.2 and 3.5 SD of the protein, either way, in both replicates (recomputed)
[1] = compound: COC1=CC=C(C=C1)CN2C=CC3=C2C=C(C=C3)C(=O)NO
Summary of the method: (§1)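 Soluble protein was defined as the supernatant after 21,000xg for 90 min. It came from K562 cells at 2×10^6 cells/mL given 10 μM compound for 30 min, heated in aliquots for 3 min across 48°C-58°C, pooled, and extracted in PBS with 0.5% NP-40 at 4°C, and was quantified by TMTpro 16plex LC-MS/MS with equalised channel sums. Thermal stability against control samples, from duplicates, is reported as log2 fold change.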

filanesib = compound: CON(C)C(=O)N1N=C(c2cc(F)ccc2F)S[C@@]1(CCCN)c1ccccc1 [filanesib]
Summary of the method: as §1

zotarolimus = compound: CO[C@H]1C[C@@H]2CC[C@@H](C)[C@@](O)(O2)C(=O)C(=O)N2CCCC[C@H]2C(=O)O[C@H]([C@H](C)C[C@@H]2CC[C@H](n3cnnn3)[C@H](OC)C2)CC(=O)[C@H](C)/C=C(\C)[C@@H](O)[C@@H](OC)C(=O)[C@H](C)C[C@H](C)/C=C/C=C/C=C/1C [zotarolimus]
Summary of the method: as §1

idasanutlin = compound: COc1cc(C(=O)O)ccc1NC(=O)[C@@H]1N[C@@H](CC(C)(C)C)[C@](C#N)(c2ccc(Cl)cc2F)[C@H]1c1cccc(Cl)c1F [idasanutlin]
Summary of the method: as §1

alisertib = compound: COc1cc(Nc2ncc3c(n2)-c2ccc(Cl)cc2C(c2c(F)cccc2OC)=NC3)ccc1C(=O)O [alisertib]
Summary of the method: as §1

[2] = compound: COc1cc2nc(-c3cc(F)ccc3O)nc(N[C@@H]3CNC[C@H]3C(C)(C)O)c2cc1OC
Summary of the method: as §1

gefitinib = compound: COc1cc2ncnc(Nc3ccc(F)c(Cl)c3)c2cc1OCCCN1CCOCC1 [gefitinib]
Summary of the method: as §1

[3] = compound: COc1cccc2cc(-c3nc([C@H]4CC[C@H](C(=O)O)CC4)n4ncnc(N)c34)[nH]c12
Summary of the method: as §1

lapatinib = compound: CS(=O)(=O)CCNCc1ccc(-c2ccc3ncnc(Nc4ccc(OCc5cccc(F)c5)c(Cl)c4)c3c2)o1 [lapatinib]
Summary of the method: as §1

pictilisib = compound: CS(=O)(=O)N1CCN(Cc2cc3nc(-c4cccc5[nH]ncc45)nc(N4CCOCC4)c3s2)CC1 [pictilisib]
Summary of the method: as §1

| Target | log2 fold change [1] | log2 fold change (filanesib) | log2 fold change (zotarolimus) | log2 fold change (idasanutlin) | log2 fold change (alisertib) | log2 fold change [2] | log2 fold change (gefitinib) | log2 fold change [3] | log2 fold change (lapatinib) | log2 fold change (pictilisib) |
| --- | --- | --- | --- | --- | --- | --- | --- | --- | --- | --- |
| DHPS (UniProt P49366) | active: 0.268 | inactive: -0.024 | inactive: -0.001 | inactive: 0.03 | inactive: -0.033 | inactive: -0.047 | inactive: -0.018 | inactive: 0.063 | inactive: 0.05 | inactive: 0.024 |
| DDX59 (UniProt Q5T1V6) | inactive: 0.023 | inactive: -0.001 | inactive: -0.004 | inactive: -0.084 | inactive: 0.012 | inactive: 0.045 | inactive: -0.034 | inactive: 0.008 | inactive: 0.022 | inactive: 0.045 |
| DHRS13 (UniProt Q6UX07) | inactive: -0.096 | inactive: 0.298 | inactive: 0.271 | inactive: 0.057 | inactive: -0.011 |  | inactive: 0.081 | inactive: -0.002 |  | inactive: 0.026 |
| DFFA (UniProt O00273) | inactive: 0.007 | inactive: 0.014 | inactive: 0.01 | inactive: -0.038 | inactive: -0.057 | inactive: 0.023 | inactive: -0.012 | inactive: -0.025 | inactive: -0.012 | inactive: 0.013 |
| DIPK2A (UniProt Q8NDZ4) | inactive: 0.072 | inactive: 0.017 | inactive: -0.097 | inactive: 0.057 |  |  | inactive: -0.004 |  |  |  |
| DDX47 (UniProt Q9H0S4) | inactive: -0.064 | inactive: 0.326 | inactive: 0.061 | inactive: 0.189 | inactive: -0.125 |  | inactive: -0.045 | inactive: -0.319 |  |  |
| DDOST (UniProt P39656) | inactive: -0.068 | inactive: -0.009 | inactive: 0.036 | inactive: 0.013 | inactive: -0.065 | inactive: 0.003 | inactive: -0.019 | inactive: 0.012 | inactive: 0.019 | inactive: -0.04 |
| DHX36 (UniProt Q9H2U1) | inactive: 0.04 | inactive: 0.119 | inactive: 0.024 | inactive: 0.017 | inactive: 0.025 | inactive: 0.017 | inactive: -0.127 | inactive: 0.059 | inactive: 0.025 | inactive: -0.038 |
| DECR2 (UniProt Q9NUI1) | inactive: 0.112 | inactive: -0.097 |  | inactive: 0.016 | inactive: -0.001 | inactive: 0.029 | inactive: 0.049 | inactive: 0.171 | inactive: 0.028 | inactive: -0.025 |
| DGCR8 (UniProt Q8WYQ5) | inactive: -0.009 | inactive: 0.345 | inactive: 0.11 | inactive: 0.313 | inactive: -0.114 | inactive: -0.08 | inactive: -0.04 | inactive: -0.034 | inactive: 0.227 | inactive: -0.085 |
| DDX4 (UniProt Q9NQI0) | inactive: -0.474 | inactive: 0.186 | inactive: 0.004 | inactive: 0.42 | inactive: 0.172 | inactive: 0.368 | inactive: 0.048 | inactive: -0.715 | inactive: -0.399 | inactive: 0.17 |
| DMAC2 isoform 4 (UniProt Q9NW81) | inactive: 0.026 | inactive: 0.104 | inactive: -0.063 | inactive: -0.117 | inactive: -0.056 | inactive: 0.031 | inactive: -0.015 | inactive: 0.038 | inactive: 0.069 | inactive: 0.031 |
| DLST (UniProt P36957) | inactive: 0.023 | inactive: 0.013 | inactive: -0.04 | inactive: 0.015 | inactive: -0.077 | inactive: -0.044 | inactive: -0.025 | inactive: -0.027 | inactive: 0.036 | inactive: -0.011 |
| DDX27 (UniProt Q96GQ7) | inactive: 0.091 | inactive: 0.278 | inactive: 0.071 | inactive: 0.246 | inactive: 0.415 |  | inactive: 0.044 | inactive: -0.138 |  | inactive: 0.061 |
| DMTN (UniProt Q08495) | inactive: 0 | inactive: 0.016 | inactive: 0.027 | inactive: 0.051 | inactive: -0.049 | inactive: -0.04 | inactive: 0.03 | inactive: 0.027 | inactive: -0.006 | inactive: -0.012 |
| DLAT (UniProt P10515) | inactive: -0.084 | inactive: 0.192 | inactive: 0.023 | inactive: 0.126 | inactive: -0.143 | inactive: -0.154 | inactive: -0.121 | inactive: -0.238 | inactive: 0.24 | inactive: -0.128 |
| DNAH9 (UniProt Q9NYC9) | inactive: -0.026 | inactive: -0.051 | inactive: 0.003 | inactive: 0.003 | inactive: -0.022 | inactive: 0.038 | inactive: -0.048 | inactive: 0.034 | inactive: -0.014 | inactive: 0.022 |
| DLG2 isoform 2 (UniProt Q15700) | inactive: -0.151 | inactive: 0.025 | inactive: -0.005 | inactive: 0.005 | inactive: 0.013 | inactive: 0.001 | inactive: 0.029 | inactive: -0.131 | inactive: -0.003 | inactive: 0.032 |
| DDX18 (UniProt Q9NVP1) | inactive: -0.153 | inactive: 0.163 | inactive: 0.17 | inactive: 0.049 | inactive: -0.146 |  |  | inactive: -0.626 |  | inactive: 0.043 |
| DCXR (UniProt Q7Z4W1) | inactive: -0.06 | inactive: 0.006 | inactive: -0.006 | inactive: -0.042 | inactive: -0.065 | inactive: 0.052 | inactive: -0.013 | inactive: 0.053 | inactive: -0.019 | inactive: 0.099 |
| DIDO1 (UniProt Q9BTC0) | inactive: -0.011 | inactive: 0.143 | inactive: 0.048 | inactive: 0.103 | inactive: 0.378 | inactive: -0.087 |  | inactive: 0.031 | inactive: 0.193 | inactive: 0.087 |
| DNAH10 (UniProt Q8IVF4) | active: 0.574 | inactive: -0.187 | inactive: -0.046 |  | inactive: -0.042 |  | inactive: -0.04 | inactive: 0.007 |  | inactive: 0.052 |
| DDT (UniProt P30046) | inactive: -0.025 | inactive: -0.047 | inactive: 0.042 | inactive: -0.018 | inactive: -0.06 | inactive: -0.095 | inactive: 0.007 | inactive: 0.003 | inactive: -0.071 | inactive: 0.01 |
| DDHD2 (UniProt O94830) | inactive: -0.025 | inactive: -0.137 | inactive: 0.011 | inactive: -0.041 | inactive: 0.006 | inactive: -0.123 | inactive: -0.041 | inactive: 0.098 | inactive: -0.025 | inactive: 0.02 |
| DDX42 (UniProt Q86XP3) | inactive: 0.148 | inactive: 0.015 | inactive: 0.044 | inactive: -0.03 |  | inactive: 0.055 |  |  | inactive: -0.059 | inactive: 0.067 |
| DMD (UniProt P11532) | inactive: -0.033 | inactive: -0.055 | inactive: -0.004 | inactive: 0.025 | inactive: 0.011 | inactive: -0.012 | inactive: 0.011 | inactive: 0.017 | inactive: 0.042 | inactive: -0.023 |
| DNA2 (UniProt P51530) | inactive: -0.061 | inactive: -0.103 |  |  |  | inactive: 0.192 | inactive: 0.26 |  | inactive: -0.011 | inactive: 0.056 |
| DKK4 (UniProt Q9UBT3) |  |  |  |  |  |  |  |  |  | inactive: -1.82 |
| DMTN isoform 2 (UniProt Q08495) | inactive: -0.006 |  |  |  |  |  | inactive: -0.168 |  |  |  |
| DHRSX (UniProt Q8N5I4) | inactive: 0.024 |  | inactive: 0.02 | inactive: 0.018 | inactive: 0.002 |  | inactive: 0.065 | inactive: 0.114 |  | inactive: -0.027 |

2 records picked at random from those above, as already listed:

| Target | log2 fold change [1] | log2 fold change (filanesib) | log2 fold change (zotarolimus) | log2 fold change (idasanutlin) | log2 fold change (alisertib) | log2 fold change [2] | log2 fold change (gefitinib) | log2 fold change [3] | log2 fold change (lapatinib) | log2 fold change (pictilisib) |
| --- | --- | --- | --- | --- | --- | --- | --- | --- | --- | --- |
| DMD (UniProt P11532) | inactive: -0.033 | inactive: -0.055 | inactive: -0.004 | inactive: 0.025 | inactive: 0.011 | inactive: -0.012 | inactive: 0.011 | inactive: 0.017 | inactive: 0.042 | inactive: -0.023 |
| DMTN isoform 2 (UniProt Q08495) | inactive: -0.006 |  |  |  |  |  | inactive: -0.168 |  |  |  |
